This note sets out measurements from article doi:10.1101/2025.05.28.656678.

Chains of the proteins cited; added tags and fusions are not shown.
UniProt P33176: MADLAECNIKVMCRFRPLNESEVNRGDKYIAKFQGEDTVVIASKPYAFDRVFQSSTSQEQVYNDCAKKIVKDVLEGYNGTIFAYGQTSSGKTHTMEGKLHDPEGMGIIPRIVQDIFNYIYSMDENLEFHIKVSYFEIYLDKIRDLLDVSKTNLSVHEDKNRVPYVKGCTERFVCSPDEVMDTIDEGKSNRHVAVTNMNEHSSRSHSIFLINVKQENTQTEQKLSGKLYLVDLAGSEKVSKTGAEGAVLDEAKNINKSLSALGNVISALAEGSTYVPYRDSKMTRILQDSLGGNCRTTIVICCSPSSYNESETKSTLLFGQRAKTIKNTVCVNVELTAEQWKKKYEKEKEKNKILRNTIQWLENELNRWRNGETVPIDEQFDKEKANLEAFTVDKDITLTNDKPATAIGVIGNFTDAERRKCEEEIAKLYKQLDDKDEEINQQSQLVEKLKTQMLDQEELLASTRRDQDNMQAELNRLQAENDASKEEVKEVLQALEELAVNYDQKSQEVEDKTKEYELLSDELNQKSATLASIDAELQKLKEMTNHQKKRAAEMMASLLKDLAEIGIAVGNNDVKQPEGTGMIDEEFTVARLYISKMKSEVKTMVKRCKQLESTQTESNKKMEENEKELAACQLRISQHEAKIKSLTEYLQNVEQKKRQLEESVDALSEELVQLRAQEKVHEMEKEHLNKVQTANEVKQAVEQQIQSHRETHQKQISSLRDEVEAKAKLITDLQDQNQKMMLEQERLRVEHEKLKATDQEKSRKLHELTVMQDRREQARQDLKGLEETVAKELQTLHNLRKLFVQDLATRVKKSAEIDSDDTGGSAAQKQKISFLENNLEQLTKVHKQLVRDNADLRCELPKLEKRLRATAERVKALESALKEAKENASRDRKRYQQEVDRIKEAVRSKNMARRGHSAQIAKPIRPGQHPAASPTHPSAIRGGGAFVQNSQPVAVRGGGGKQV
UniProt Q61768: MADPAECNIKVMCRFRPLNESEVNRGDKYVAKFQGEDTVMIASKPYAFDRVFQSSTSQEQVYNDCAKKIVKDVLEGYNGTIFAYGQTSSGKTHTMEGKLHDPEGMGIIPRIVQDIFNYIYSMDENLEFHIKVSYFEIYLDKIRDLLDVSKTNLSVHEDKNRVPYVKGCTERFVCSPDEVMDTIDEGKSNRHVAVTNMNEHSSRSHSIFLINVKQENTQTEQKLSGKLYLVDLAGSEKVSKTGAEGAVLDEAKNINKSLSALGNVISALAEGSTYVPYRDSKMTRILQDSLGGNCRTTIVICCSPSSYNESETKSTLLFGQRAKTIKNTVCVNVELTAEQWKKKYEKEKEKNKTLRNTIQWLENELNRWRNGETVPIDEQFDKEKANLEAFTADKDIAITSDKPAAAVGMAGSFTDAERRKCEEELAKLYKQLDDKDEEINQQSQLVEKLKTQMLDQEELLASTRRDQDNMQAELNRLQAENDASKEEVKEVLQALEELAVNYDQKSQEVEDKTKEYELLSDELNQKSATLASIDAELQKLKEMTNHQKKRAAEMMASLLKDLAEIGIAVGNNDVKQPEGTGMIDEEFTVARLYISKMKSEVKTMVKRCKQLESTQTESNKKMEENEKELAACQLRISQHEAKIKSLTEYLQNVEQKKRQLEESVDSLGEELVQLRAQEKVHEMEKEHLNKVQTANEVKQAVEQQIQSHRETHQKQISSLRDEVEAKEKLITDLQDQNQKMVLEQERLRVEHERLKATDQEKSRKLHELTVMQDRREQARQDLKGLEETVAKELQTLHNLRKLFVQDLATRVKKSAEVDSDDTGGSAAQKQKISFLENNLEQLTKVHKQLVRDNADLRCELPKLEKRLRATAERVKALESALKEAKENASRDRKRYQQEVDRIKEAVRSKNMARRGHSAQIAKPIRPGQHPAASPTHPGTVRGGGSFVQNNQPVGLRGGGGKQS
UniProt O94901: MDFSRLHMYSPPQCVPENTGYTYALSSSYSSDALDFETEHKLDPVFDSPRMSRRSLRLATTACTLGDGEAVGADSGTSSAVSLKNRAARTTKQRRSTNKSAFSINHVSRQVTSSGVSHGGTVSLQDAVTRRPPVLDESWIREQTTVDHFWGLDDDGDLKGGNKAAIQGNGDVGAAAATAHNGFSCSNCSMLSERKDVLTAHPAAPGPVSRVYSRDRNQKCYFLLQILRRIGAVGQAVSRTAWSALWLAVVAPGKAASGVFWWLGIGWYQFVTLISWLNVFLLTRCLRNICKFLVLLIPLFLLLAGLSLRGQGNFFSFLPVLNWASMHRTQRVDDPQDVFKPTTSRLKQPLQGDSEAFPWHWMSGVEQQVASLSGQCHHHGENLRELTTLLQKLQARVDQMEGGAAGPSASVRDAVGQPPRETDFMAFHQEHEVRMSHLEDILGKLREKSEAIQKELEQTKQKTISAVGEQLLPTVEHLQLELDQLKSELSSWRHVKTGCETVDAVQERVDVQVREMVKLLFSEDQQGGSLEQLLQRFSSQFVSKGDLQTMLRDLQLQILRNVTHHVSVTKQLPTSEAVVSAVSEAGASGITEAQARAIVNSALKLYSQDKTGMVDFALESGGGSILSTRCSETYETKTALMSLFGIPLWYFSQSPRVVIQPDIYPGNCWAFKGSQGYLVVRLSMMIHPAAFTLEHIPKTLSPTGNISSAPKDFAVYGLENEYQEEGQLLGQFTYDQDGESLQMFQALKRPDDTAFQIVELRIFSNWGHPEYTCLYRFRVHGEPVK

Read-outs that look alike come from different tables or passages of the source. Results are given in words; binding and its absence hold for the method and conditions named. For part of these data: In cells and extracts the contact can be indirect. Some entries that bind do so weakly or less than the wild type. For part of these data: Sequences can lack the tags named with a protein.

One test addresses T1, FLAG-KASH5-FL (human) (UniProt Q8N6L0).
T1 sequence: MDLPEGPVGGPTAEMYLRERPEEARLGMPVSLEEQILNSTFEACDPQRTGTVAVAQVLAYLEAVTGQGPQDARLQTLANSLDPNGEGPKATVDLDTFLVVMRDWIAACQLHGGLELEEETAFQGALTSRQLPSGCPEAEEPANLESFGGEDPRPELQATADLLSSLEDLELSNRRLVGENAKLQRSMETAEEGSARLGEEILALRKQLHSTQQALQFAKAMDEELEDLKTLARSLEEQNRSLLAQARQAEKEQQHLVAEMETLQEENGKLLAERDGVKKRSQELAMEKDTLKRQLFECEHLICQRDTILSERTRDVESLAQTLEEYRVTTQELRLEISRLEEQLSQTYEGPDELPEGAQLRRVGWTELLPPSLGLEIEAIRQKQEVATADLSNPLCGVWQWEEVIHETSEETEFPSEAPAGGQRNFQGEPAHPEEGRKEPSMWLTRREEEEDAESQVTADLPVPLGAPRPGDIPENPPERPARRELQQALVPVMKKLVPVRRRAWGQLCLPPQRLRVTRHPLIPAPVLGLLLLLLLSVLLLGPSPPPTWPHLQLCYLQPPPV
Nature of the test: co-IP.

Test [1] concerns the target KIF5B (endogenous, HeLa) (human (endogenous in HeLa)) (UniProt P33176). The test can be described thus: co-IP.
Test [2] addresses T2, mouse KASH5 (70-579 amino acids) (mouse) (UniProt Q80VJ8).
T2 sequence: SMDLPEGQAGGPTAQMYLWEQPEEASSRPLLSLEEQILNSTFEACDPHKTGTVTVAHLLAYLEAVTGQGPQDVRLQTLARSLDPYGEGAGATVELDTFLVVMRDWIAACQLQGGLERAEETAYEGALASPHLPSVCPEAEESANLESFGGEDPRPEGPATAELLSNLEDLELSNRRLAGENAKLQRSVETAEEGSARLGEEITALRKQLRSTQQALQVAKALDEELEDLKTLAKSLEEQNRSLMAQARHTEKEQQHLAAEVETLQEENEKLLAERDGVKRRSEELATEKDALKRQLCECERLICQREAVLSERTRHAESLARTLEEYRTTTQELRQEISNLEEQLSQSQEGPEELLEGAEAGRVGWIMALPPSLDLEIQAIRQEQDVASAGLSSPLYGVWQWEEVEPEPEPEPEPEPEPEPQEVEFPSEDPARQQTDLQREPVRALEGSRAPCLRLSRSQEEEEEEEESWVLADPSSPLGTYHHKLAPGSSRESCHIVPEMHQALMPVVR
The test can be described thus: two-hybrid.

Test [3] concerns the target T3, KASH5 (mouse (endogenous in testis)) (UniProt Q80VJ8).
T3 sequence: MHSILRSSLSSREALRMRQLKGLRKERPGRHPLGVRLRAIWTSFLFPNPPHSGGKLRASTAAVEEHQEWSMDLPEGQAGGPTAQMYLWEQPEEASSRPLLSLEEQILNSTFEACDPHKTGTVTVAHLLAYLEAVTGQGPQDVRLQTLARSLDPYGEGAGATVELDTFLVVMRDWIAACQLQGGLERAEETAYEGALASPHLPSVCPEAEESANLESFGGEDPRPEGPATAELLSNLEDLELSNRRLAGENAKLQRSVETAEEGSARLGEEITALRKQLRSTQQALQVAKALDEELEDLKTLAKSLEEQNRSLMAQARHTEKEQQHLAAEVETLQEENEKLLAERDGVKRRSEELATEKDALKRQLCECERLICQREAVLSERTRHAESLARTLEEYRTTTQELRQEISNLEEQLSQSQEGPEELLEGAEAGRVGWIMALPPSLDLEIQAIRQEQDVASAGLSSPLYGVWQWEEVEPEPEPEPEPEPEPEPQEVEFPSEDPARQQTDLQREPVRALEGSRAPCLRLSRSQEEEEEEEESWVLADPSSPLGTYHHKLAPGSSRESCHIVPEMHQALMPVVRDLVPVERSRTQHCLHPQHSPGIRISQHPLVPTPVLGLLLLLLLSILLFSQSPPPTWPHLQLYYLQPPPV
Nature of the test: co-IP.

Test [4] concerns the target KIF5B-Halo (UniProt P33176). Nature of the test: TIRF microscopy single-molecule binding assay.
In test [5] the target is KIF5B-Halo (UniProt P33176). Nature of the test: co-sedimentation.
For test [6], the target named is KIF5B (mouse (endogenous in testis)) (UniProt Q61768). The test can be described thus: co-IP.
In test [7] the target is KIF5B (endogenous, HeLa) (human (endogenous in HeLa)) (UniProt P33176). Nature of the test: co-IP. This is another data set of the same source.
The target in test [8] is KIF5B (endogenous, Neuro 2) (mouse (endogenous in Neuro 2)) (UniProt Q61768). Nature of the test: co-IP.

As for SUN1-myc (from UniProt O94901 1-785), the binding entry (with FLAG-KASH5-FL (human); in test [1]) was “binds” in each case.

For the molecule “mouse KIF5B (1-963 amino acids) (from UniProt Q61768 1-963)”, the binding result in test [2] was “binds”.

As for KIF5B (from UniProt Q61768 1-963), the binding result in test [3] is recorded as “binds”.

B1: Halo-KASH5 1-400 (domain or fragment, UniProt Q8N6L0 1-400)
chain: MDLPEGPVGGPTAEMYLRERPEEARLGMPVSLEEQILNSTFEACDPQRTGTVAVAQVLAYLEAVTGQGPQDARLQTLANSLDPNGEGPKATVDLDTFLVVMRDWIAACQLHGGLELEEETAFQGALTSRQLPSGCPEAEEPANLESFGGEDPRPELQATADLLSSLEDLELSNRRLVGENAKLQRSMETAEEGSARLGEEILALRKQLHSTQQALQFAKAMDEELEDLKTLARSLEEQNRSLLAQARQAEKEQQHLVAEMETLQEENGKLLAERDGVKKRSQELAMEKDTLKRQLFECEHLICQRDTILSERTRDVESLAQTLEEYRVTTQELRLEISRLEEQLSQTYEGPDELPEGAQLRRVGWTELLPPSLGLEIEAIRQKQEVATADLSNPLCGVWQ
modifications: Halo-TMR label (in the TIRF assay)
As for B1, the binding result in the test with KIF5B-Halo [4] and in the test with KIF5B-Halo [5] was “binds” in each case.

B2: KASH5 (protein, UniProt Q80VJ8 1-648)
chain: T3 sequence
With B2, in test [6], the binding result was “binds”.

B3: FLAG-KASH5-FL (protein, UniProt Q8N6L0 1-562)
chain: T1 sequence
For the molecule B3, in [7], the binding entry is reported as “binds”.

B4: FLAG-KASH5-FL (in Neuro 2 cells) (protein, UniProt Q8N6L0 1-562)
chain: T1 sequence
Take B4: the binding result in test [8] is recorded as “binds”.
